# The other results are listed elsewhere or left out. The main result of the screen is listed elsewhere. These columns were measured beside it and carry no call. The list favours compounds with an active or inconclusive main result. Words in brackets tell the shape of the fitted curve; partial curves, single points and poor fits give uncertain potencies.
# Assay: qHTS Assay to Find Inhibitors of Chronic Active B-Cell Receptor Signaling
# Details: ABC-DLBCL IkBa-CBG/CBR reporter, luminescence ratio (green luciferase fused to IkBa over red control in TMD8 lymphoma cells), 4 h
# Procedure, shortened: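 Doxycycline induced both beetle luciferases in TMD8 lymphoma cells; IKK-driven degradation limits the IkappaBalpha-fused green signal, while red luminescence normalises for cell number and nonspecific effects. Compounds tested up to 46 uM, 4 hrs.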
# [1] = measured here: CBR red luminescence, cell number
# [2] = measured here: IkBa-CBG green luminescence
Compound,AC50 [1],AC50 [2]
Cc1ccc(N2C(=O)SC(N(CC(=O)O)c3cccc(C)c3)C2=O)cc1 (configuration not stated),"7.08 µM [falling, partial curve]",
C/C(=N\NC(=O)c1ccc(O)cc1)c1ccc2c(c1)OCCO2,"2.06 µM [falling, partial curve]",
COc1cccc(NC(=O)C(=O)c2cn(CC(=O)N3CCOCC3)c3ccccc23)c1,"0.398 µM [falling, full curve]",
COc1ccc(CCNC(=O)c2noc(C(C)C)c2[N+](=O)[O-])cc1OC,"22.4 µM [rising, single point]",
CC(=O)Oc1ccc2c(=O)c(-c3ccccc3)coc2c1,,"5.01 µM [rising, partial curve, poor fit]"
COc1ccc(-c2cc3ccc(OCC(=O)NCC4CCC(C(=O)O)CC4)cc3oc2=O)cc1 (configuration not stated),"0.891 µM [falling, partial curve, poor fit]",
Cc1cnc(NC(=O)c2cccc(S(=O)(=O)N3CCOCC3)c2)s1,"23.1 µM [falling, partial curve, poor fit]",
CCOC(=O)c1c(C)[nH]c(C(=O)OCC(=O)NCc2ccc(F)cc2)c1C,"14.6 µM [rising, partial curve, poor fit]",
CN(C(=O)c1cccc(NC(=O)c2cccs2)c1)c1ccccc1,"6.31 µM [falling, single point]",
COc1ccc(-c2noc(-c3ccccc3Cl)n2)cc1OC,"0.259 µM [rising, full curve, poor fit]",
c1csc(-c2nc(-c3ccc(-c4ccon4)s3)no2)c1,"17.8 µM [falling, single point]",
COc1ccc(-c2csc(NC(=O)c3cccs3)c2C(=O)O)cc1OC,"0.708 µM [falling, partial curve, poor fit]",
Cc1ccc(C(=O)Nc2ccc(C)c(S(=O)(=O)Nc3ccccc3Cl)c2)s1,"20.6 µM [falling, single point]",
c1cncc(CSc2nnc3ccc(-c4cccs4)nn23)c1,"35.5 µM [falling, single point]",
NS(=O)(=O)c1cc(C(=O)N=Nc2c(O)[nH]c3ccccc23)ccc1Cl,"1.12 µM [falling, full curve]",
Cc1ccccc1NC(=S)NC(=O)Cc1ccc(Cl)cc1,"28.2 µM [falling, single point]",
O=C(Nc1nc2ccccc2s1)c1cc2c(s1)-c1ccccc1OC2,"6.51 µM [rising, partial curve, poor fit]",
CC(C)CC(=O)NC(=S)Nc1ccc(N2CCCC2)c(Cl)c1,"14.1 µM [rising, single point]",
Nc1ccc(C(=O)O)cc1,"2.59 µM [rising, full curve]",
COc1cccc(-c2cnc(NCc3cc(Cl)ccc3O)n2C)c1,"8.91 µM [falling, partial curve, poor fit]",
Nc1cc(Cl)ccc1C(=O)OCC(=O)NCc1cccs1,"14.6 µM [falling, single point]",
CCOC(=O)c1cnn2c(C)cc(-c3ccccc3)nc12,"29.1 µM [falling, single point]",
Cc1ccc(O)c(NC2=C(Cl)C(=O)N(Cc3ccccc3)C2=O)c1,"35.5 µM [falling, single point]",

# Retrieved one by one from above, two records:
Compound,AC50 [1],AC50 [2]
COc1cccc(-c2cnc(NCc3cc(Cl)ccc3O)n2C)c1,"8.91 µM [falling, partial curve, poor fit]",
Cc1cnc(NC(=O)c2cccc(S(=O)(=O)N3CCOCC3)c2)s1,"23.1 µM [falling, partial curve, poor fit]",

# Remaining list, next part:

Compound,AC50 [1],AC50 [2]
O=C(Nc1n[nH]c(=S)s1)c1ccc2ccccc2c1,"0.891 µM [falling, full curve, poor fit]",
COc1cccc(NC(=O)Cn2cnc3sc(C)c(S(=O)(=O)N4CCCCC4)c3c2=O)c1,"2.06 µM [falling, full curve]",
CCCCCC(=O)Nc1nc2ccccc2[nH]1,"18.4 µM [falling, partial curve]",
COc1ccc2c(c1)OC13CCCCC1C2C(C(=O)c1ccccc1)C(=O)N3 (configuration not stated),"18.4 µM [rising, single point]",
N#Cc1nc(-c2ccc(OCc3ccccc3)cc2)oc1NCc1cccnc1,"1.41 µM [rising, full curve]",
CCCCCOCC1CC(C/C(C)=N/NC(N)=S)C(=O)O1 (configuration not stated),"29.1 µM [falling, single point]",
Cc1c(C(=O)N2CCN(C(=O)c3ccccc3)CC2)oc2ccc(F)cc12,"1.46 µM [rising, partial curve]",
C/C(O)=c1/cnc2nc3ccccc3n2c1=O,"14.1 µM [falling, single point]",
COc1ccc(S(=O)(=O)N2CCOC2CNC(=O)C(=O)NCc2ccncc2)cc1OC (configuration not stated),"17.8 µM [rising, partial curve, poor fit]",
CCc1ccc(C(C(=O)NC2CCCC2)N(C(=O)c2csnn2)C2CC2)cc1 (configuration not stated),"0.0891 µM [rising, full curve, poor fit]",
CC(=O)OCCCn1c(C)[n+](C)c2cc(Cl)c(Cl)cc21,"3.98 µM [rising, full curve, poor fit]",
Cc1ccccc1-c1ncc(CN2CCN(C3CCCCC3)C(CCO)C2)cn1 (configuration not stated),"12.6 µM [rising, partial curve, poor fit]",
C=CCN(CC=C)C(=S)NC(=O)c1ccc(-c2ccccc2)cc1,"29.1 µM [rising, single point]",
C/C(CC(=O)Nc1ccc(C)c(Cl)c1)=N\NC(=O)c1ccccn1,"7.94 µM [falling, partial curve]",
Cc1ccccc1OCC(=O)Nc1cccc(NC(=O)c2ccco2)c1,"0.562 µM [falling, full curve, poor fit]",
O=C(O)CCc1cccnc1,"12.6 µM [falling, partial curve]",
COc1ccc(/C=C/c2noc(-c3ccccc3OC(C)=O)n2)cc1,"7.94 µM [falling, partial curve]",
O=C(Nc1ccc([N+](=O)[O-])cn1)C1CCCCC1,"18.4 µM [falling, partial curve]",
COc1cccc(Nc2nc(-c3cccs3)nc3ccccc23)c1,,"16.4 µM [rising, partial curve, poor fit]"
COc1cccc(/C=N/NC(=O)N/N=C/c2cccc(OC)c2O)c1O,"8.91 µM [falling, partial curve, poor fit]",
O=C(Nc1ccccc1)OCCOc1ccc(Br)cc1,"10 µM [rising, partial curve]",
CC(C)N(C(=O)c1ccc(-c2ccccc2F)cc1)C(C)C,"7.08 µM [falling, partial curve, poor fit]",
O=C(Nc1ccc(SC(F)F)cc1)C1=CC=CN2CCS(=O)(=O)N=C12,"0.411 µM [rising, full curve, poor fit]",

Compound,AC50 [1],AC50 [2]
Cc1ccccc1-c1cc(C(=O)NCc2ccco2)nn1CC1CC(c2cccc([N+](=O)[O-])c2)=NO1 (configuration not stated),"25.9 µM [falling, single point]",
O=C(Nc1nc2cc3c(cc2s1)OCO3)c1ccco1,"1 µM [falling, full curve, poor fit]",
O=C(CN1C=NS(=O)(=O)c2ccccc21)Nc1ccc(Br)cc1,"3.55 µM [falling, partial curve, poor fit]",
OC(CN1CCN(c2ccc(C(F)(F)F)cn2)CC1)c1ccccc1 (configuration not stated),"1.26 µM [rising, full curve, poor fit]",
O=[N+]([O-])c1ccc(-c2cn(-c3ccccc3)c(=S)[nH]2)cc1,"9.2 µM [rising, partial curve, poor fit]",
O=S(=O)(c1ccccc1)c1cccc(S(=O)(=O)N2CCCCC2)c1,"0.259 µM [falling, full curve, poor fit]",
O=C(O)CSc1cc(NS(=O)(=O)c2cccc([N+](=O)[O-])c2)c2ccccc2c1O,"28.2 µM [falling, single point]",
O=C(Nc1ccc(Cl)cc1)c1ccc2ncsc2c1,"35.5 µM [falling, single point]",
CC(CC(=O)Nc1nc2ccccc2[nH]1)c1ccccc1 (configuration not stated),"3.66 µM [falling, partial curve, poor fit]",
CCc1ccc2nc(N=C(N)N)nc(C)c2c1,"0.501 µM [rising, full curve, poor fit]",
Cc1ccc(NS(=O)(=O)c2ccccc2)c2c1CC(C)(C)O2,"29.1 µM [rising, single point]",
NCCCCCc1nnc(SCc2ccc(Cl)cc2Cl)o1,"11.2 µM [falling, single point]",
N#Cc1cc(-c2ccccc2)[nH]c1-c1nccc2ccccc12,"35.5 µM [falling, single point]",
N#CN=C1SCCS1,"28.2 µM [rising, partial curve, poor fit]",
NCCCC[C@H]1CNC(=S)N1CCc1cccc(F)c1,"4.47 µM [falling, partial curve, poor fit]",
CC(C)CC(=O)Nc1nc2ccc(S(C)(=O)=O)cc2s1,"35.5 µM [rising, single point]",
O=C(Nc1nncs1)c1cccc(S(=O)(=O)N2CCCC2)c1,"16.4 µM [rising, single point]",
Cc1ncsc1CCOC(=O)c1ccccc1,"11.2 µM [rising, partial curve, poor fit]",
CC(C(=O)NC1=NCCS1)(C(F)(F)F)C(F)(F)F,"0.366 µM [falling, full curve, poor fit]",
CCc1nnc(NC(=O)C2Cc3ccccc3CN2S(=O)(=O)c2ccc(C)cc2)s1 (configuration not stated),"35.5 µM [falling, single point]",
Cc1ccc(CN2C(=O)CSC2c2cccnc2)cc1 (configuration not stated),"6.31 µM [rising, single point]",
